Here are results for 38 targets from the supplement of paper PMC10849652.

Protein sequences, listed by entry. Tags and fused reporters are not part of them. Lines headed by an entry give the natural chain unless they say otherwise; changes in a name come on top.
UniProt Q9Y232: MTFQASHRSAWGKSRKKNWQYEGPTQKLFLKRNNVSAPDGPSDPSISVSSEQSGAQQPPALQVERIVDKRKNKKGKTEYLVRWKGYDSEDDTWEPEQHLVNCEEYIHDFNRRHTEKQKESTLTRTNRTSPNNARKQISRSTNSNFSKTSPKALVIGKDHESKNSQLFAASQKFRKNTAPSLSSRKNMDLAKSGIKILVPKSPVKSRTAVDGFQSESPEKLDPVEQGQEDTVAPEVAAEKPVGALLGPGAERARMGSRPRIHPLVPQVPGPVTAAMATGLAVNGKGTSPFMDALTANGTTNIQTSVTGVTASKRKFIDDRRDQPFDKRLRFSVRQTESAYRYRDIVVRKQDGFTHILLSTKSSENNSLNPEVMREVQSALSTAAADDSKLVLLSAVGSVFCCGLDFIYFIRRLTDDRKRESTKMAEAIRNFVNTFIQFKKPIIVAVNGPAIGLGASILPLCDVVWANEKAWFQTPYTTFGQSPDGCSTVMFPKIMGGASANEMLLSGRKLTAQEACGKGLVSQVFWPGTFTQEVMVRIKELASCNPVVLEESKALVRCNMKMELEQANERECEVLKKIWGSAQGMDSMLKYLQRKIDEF
UniProt P08603, whole entry, looked up: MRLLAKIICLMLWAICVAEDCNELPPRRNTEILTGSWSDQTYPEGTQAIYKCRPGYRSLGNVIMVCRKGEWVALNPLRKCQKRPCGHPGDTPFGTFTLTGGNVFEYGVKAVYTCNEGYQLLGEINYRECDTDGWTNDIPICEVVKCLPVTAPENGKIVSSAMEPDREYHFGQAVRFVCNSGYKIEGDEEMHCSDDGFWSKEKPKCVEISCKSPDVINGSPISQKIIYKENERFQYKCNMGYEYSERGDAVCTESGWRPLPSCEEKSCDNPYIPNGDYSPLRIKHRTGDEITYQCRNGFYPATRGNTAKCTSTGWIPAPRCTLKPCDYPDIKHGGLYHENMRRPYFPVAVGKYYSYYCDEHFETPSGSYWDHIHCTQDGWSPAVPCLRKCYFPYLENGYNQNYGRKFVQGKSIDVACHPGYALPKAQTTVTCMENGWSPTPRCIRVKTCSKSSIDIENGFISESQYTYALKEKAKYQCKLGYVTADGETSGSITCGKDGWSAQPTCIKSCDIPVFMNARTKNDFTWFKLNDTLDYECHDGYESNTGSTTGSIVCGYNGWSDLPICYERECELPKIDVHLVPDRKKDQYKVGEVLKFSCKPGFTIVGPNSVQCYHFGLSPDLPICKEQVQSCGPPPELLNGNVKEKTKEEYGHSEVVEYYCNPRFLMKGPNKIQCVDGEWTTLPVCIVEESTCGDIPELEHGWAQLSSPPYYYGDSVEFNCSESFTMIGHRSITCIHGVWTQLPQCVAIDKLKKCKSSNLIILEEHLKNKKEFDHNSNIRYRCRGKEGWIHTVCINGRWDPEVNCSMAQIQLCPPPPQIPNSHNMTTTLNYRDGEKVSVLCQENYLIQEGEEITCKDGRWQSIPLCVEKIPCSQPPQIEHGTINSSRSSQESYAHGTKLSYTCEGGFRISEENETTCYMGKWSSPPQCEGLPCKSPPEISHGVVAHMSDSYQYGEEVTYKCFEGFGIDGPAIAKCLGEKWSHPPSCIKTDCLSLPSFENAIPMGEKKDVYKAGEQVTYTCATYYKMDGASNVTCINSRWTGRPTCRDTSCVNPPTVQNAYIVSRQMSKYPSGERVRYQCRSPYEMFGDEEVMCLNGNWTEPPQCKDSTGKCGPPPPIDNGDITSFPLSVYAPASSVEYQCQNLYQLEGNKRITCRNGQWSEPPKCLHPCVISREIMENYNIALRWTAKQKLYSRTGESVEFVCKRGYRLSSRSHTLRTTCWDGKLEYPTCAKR
UniProt P23528, whole entry, looked up: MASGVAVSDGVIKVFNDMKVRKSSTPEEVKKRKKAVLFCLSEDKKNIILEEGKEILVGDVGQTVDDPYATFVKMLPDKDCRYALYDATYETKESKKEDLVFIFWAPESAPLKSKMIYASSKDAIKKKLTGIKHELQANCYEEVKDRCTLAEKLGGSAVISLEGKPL
UniProt P42773: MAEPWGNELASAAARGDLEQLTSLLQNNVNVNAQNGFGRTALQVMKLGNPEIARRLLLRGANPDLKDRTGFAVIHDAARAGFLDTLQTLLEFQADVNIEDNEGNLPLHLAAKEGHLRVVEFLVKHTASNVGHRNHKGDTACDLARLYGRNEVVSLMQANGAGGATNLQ
UniProt Q92879: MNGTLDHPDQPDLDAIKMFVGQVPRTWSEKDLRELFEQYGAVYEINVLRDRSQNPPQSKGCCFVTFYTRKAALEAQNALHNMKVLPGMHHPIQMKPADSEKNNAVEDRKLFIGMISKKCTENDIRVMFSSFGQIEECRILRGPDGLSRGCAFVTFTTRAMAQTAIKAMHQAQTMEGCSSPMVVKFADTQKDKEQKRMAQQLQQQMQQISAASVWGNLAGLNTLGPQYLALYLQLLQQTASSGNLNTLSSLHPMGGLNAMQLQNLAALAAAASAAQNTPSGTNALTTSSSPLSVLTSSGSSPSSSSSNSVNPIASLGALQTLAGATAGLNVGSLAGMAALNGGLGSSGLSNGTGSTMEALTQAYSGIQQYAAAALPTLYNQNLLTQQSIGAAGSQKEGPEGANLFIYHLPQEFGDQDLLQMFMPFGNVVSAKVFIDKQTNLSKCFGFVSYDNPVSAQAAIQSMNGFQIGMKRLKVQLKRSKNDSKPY
UniProt Q9Y6A4: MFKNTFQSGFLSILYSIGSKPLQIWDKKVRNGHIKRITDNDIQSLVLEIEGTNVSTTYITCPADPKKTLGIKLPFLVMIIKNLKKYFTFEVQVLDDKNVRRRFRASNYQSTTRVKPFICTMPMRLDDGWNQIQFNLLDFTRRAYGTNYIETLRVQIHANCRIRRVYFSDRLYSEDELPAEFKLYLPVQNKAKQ
UniProt Q9BWU1: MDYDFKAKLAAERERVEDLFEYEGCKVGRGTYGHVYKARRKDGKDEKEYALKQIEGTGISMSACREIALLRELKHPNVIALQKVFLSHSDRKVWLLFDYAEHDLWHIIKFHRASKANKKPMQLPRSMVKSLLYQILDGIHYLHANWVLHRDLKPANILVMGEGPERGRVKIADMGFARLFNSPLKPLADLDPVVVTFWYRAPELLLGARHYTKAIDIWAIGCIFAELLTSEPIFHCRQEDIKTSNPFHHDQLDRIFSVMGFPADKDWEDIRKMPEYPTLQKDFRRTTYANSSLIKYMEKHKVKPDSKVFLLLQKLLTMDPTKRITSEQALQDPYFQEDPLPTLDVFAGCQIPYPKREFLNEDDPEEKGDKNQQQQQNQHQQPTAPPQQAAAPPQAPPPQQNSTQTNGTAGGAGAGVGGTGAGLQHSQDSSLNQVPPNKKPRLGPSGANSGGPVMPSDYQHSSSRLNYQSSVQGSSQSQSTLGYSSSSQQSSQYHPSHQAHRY
UniProt Q6ZMG9: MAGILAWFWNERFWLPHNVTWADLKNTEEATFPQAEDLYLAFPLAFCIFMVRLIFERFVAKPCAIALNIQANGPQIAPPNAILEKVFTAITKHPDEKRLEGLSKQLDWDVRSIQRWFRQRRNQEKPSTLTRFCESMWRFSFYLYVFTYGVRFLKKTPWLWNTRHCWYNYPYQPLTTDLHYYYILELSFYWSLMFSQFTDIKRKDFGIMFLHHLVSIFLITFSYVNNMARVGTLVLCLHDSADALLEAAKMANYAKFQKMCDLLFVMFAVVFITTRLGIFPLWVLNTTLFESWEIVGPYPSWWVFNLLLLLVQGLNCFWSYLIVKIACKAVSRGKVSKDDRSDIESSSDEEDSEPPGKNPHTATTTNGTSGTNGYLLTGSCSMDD
UniProt Q5VT25: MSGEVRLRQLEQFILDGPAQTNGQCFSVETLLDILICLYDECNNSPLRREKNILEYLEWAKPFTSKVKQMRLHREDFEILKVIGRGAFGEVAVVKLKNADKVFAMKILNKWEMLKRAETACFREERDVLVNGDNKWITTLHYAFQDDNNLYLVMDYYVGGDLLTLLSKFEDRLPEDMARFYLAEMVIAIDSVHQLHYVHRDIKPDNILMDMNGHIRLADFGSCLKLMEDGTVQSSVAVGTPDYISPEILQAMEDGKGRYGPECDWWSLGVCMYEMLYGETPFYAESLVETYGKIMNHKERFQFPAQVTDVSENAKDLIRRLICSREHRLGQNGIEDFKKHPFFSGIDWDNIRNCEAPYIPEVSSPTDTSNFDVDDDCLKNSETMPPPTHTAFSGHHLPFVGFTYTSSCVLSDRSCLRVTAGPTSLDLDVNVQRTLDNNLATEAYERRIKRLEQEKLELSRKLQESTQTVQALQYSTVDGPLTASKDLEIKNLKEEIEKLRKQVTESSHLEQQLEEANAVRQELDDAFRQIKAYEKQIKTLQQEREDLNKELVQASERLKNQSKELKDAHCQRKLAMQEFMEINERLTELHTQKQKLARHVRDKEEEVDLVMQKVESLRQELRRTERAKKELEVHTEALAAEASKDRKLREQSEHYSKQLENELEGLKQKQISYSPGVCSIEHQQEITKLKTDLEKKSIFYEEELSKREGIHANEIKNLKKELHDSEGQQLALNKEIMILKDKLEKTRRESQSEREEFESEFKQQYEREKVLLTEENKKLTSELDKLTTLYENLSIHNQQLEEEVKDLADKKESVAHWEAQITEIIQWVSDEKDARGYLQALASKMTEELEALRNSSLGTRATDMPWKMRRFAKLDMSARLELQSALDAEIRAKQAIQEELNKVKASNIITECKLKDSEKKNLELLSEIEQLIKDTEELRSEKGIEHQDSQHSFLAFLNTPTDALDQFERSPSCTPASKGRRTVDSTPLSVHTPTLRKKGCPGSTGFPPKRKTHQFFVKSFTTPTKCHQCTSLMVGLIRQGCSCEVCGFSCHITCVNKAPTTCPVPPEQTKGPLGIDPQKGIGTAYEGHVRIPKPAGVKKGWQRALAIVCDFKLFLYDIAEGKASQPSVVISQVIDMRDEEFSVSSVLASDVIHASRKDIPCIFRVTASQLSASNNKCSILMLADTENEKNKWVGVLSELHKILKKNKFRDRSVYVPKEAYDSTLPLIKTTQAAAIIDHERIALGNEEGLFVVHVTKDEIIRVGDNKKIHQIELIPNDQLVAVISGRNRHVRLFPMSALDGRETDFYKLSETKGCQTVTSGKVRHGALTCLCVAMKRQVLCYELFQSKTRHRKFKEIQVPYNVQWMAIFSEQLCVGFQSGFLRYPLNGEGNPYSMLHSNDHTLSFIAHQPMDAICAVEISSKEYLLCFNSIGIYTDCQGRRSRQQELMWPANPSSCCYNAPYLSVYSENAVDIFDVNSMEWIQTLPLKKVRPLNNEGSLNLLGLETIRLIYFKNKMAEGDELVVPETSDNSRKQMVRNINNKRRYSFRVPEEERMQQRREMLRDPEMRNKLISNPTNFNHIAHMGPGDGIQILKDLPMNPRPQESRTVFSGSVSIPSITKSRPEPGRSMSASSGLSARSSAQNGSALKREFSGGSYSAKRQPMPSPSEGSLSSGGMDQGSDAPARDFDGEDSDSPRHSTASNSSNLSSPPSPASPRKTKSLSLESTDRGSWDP
UniProt Q9BU64: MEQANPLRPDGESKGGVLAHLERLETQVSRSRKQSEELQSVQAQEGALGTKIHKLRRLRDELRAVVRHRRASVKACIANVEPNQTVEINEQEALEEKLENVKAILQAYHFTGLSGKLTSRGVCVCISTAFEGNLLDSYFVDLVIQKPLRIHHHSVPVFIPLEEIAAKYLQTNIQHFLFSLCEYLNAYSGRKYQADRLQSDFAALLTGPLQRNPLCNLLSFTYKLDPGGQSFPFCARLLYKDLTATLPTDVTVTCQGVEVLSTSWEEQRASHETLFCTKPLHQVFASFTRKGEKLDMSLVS
UniProt O95674: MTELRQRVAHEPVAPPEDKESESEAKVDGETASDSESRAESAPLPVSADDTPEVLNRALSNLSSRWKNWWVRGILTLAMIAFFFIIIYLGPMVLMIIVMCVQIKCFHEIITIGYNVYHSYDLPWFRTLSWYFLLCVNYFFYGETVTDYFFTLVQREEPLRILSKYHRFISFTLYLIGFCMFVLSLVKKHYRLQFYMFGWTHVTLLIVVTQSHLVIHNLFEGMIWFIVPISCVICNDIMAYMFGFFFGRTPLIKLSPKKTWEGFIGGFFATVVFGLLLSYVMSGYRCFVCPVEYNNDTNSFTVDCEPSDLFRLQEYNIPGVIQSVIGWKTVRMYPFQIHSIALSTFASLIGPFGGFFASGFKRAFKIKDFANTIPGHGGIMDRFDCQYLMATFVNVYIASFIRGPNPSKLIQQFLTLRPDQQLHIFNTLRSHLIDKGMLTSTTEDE
UniProt Q9Y259: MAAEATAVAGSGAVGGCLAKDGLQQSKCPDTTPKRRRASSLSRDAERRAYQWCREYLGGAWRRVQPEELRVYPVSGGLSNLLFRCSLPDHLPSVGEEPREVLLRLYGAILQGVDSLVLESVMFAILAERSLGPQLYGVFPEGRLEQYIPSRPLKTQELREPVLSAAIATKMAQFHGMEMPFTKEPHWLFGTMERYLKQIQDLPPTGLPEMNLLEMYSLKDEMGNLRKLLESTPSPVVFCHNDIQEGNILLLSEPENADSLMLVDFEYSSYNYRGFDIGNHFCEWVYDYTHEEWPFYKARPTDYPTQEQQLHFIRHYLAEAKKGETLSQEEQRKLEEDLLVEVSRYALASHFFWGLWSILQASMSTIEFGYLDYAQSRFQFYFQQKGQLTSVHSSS

The other results are listed elsewhere or left out.

Compound in the first assay: CNCc1ccc(-c2[nH]c3cc(F)cc4c3c2CCNC4=O)cc1 [rucaparib]
The assay can be described thus: log2 fold change, soluble protein after heating vs DMSO (PISA); higher = thermal stabilisation; K562 cells, 10 uM, 30 min; active = over 0.2 and 3.5 SD of the protein, either way, in both replicates (recomputed). The essentials:
(§1)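 Quantification of soluble protein used TMTpro 16plex LC-MS/MS, with channel sums equalised. Samples were the supernatant after 21,000xg for 90 min of pooled aliquots from K562 cells (2×10^6 cells/mL) treated with 10 μM compound for 30 min, heated for 3 min over 48°C-58°C, and extracted in PBS with 0.5% NP-40 at 4°C. Values, from duplicates, describe thermal stability against control samples on a log2 fold-change scale.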
Consider CEP44 (UniProt Q9C0F1), for which the log2 fold change is inactive: -0.285.

Consider CDYL (UniProt Q9Y232), for which the log2 fold change was inactive: -0.067.

As to CFH (UniProt P08603), the log2 fold change is inactive: -0.016.

Take CHD6 (UniProt Q8TD26): the log2 fold change is inactive: 0.042.

For CFL1 (UniProt P23528), the log2 fold change was inactive: -0.042.

Regarding CDCA5 (UniProt Q96FF9), the log2 fold change is inactive: -0.016.

As for CHD5 (UniProt Q8TDI0), the log2 fold change is inactive: 0.208.

In the case of CEP250 (UniProt Q9BV73), the log2 fold change was inactive: 0.013.

Turning to CHMP2A (UniProt O43633), the log2 fold change is inactive: -0.061.

Consider CHAF1B (UniProt Q13112), for which the log2 fold change is inactive: -0.021.

Take CHM (UniProt P24386): the log2 fold change was inactive: 0.009.

As to CENPH (UniProt Q9H3R5), the log2 fold change was inactive: 0.197.

In the case of CDKN2C (UniProt P42773), the log2 fold change is inactive: -0.031.

As for CELF1 isoform 4 (UniProt Q92879), the log2 fold change was inactive: 0.107.

For CDIPT (UniProt O14735), the log2 fold change was inactive: 0.028.

Turning to CFAP20 (UniProt Q9Y6A4), the log2 fold change was inactive: 0.145.

On to CDC42EP4 (UniProt Q9H3Q1), for which the log2 fold change is inactive: 0.109.

Consider CDK19 (UniProt Q9BWU1), for which the log2 fold change is inactive: 0.345.

Consider CENPF (UniProt P49454), for which the log2 fold change was inactive: 0.07.

Consider CERS6 isoform 2 (UniProt Q6ZMG9), for which the log2 fold change is inactive: -0.087.

Take CHEK2 isoform 9 (UniProt O96017): the log2 fold change was inactive: -0.015.

Consider CDC42BPA isoform 6 (UniProt Q5VT25), for which the log2 fold change is inactive: 0.088.

Take CEP97 isoform 2 (UniProt Q8IW35): the log2 fold change was inactive: 0.144.

As to CDK9 isoform 2 (UniProt P50750), the log2 fold change was inactive: 0.084.

CENPO (UniProt Q9BU64): the log2 fold change was inactive: 0.023.

In the case of CDCA3 (UniProt Q99618), the log2 fold change was inactive: 0.005.

In the case of CDS2 (UniProt O95674), the log2 fold change is inactive: -0.005.

Consider CEP192 (UniProt Q8TEP8), for which the log2 fold change was inactive: -0.005.

As to CHMP1B (UniProt Q7LBR1), the log2 fold change was inactive: -0.038.

For CHCHD7 isoform 4 (UniProt Q9BUK0), the log2 fold change is inactive: 0.013.

As to CFL2 (UniProt Q9Y281), the log2 fold change was inactive: -0.039.

With CDKAL1 (UniProt Q5VV42), the log2 fold change is inactive: 0.024.

In the case of CEP170 (UniProt Q5SW79), the log2 fold change was inactive: 0.224.

Regarding CHCHD3 (UniProt Q9NX63), the log2 fold change is inactive: -0.056.

On to CFAP298 (UniProt P57076), for which the log2 fold change is inactive: 0.4.

In the case of CHKB (UniProt Q9Y259), the log2 fold change is inactive: -0.023.

In the case of CHMP1A (UniProt Q9HD42), the log2 fold change is inactive: -0.014.

Take CHML (UniProt P26374): the log2 fold change was inactive: -0.059.

Compound in a further assay: CNc1nc(-c2ccc3c(N)n[nH]c3c2)cc(N2C[C@@H](C(=O)NC3CCCCC3)CC[C@H]2C)n1
The description is as above. The essentials: as §1
On to CEP44 (UniProt Q9C0F1), for which the log2 fold change is inactive: 0.019.

In the case of CDYL (UniProt Q9Y232), the log2 fold change is inactive: 0.022.

On to CFH (UniProt P08603), for which the log2 fold change is inactive: 0.

As for CHD6 (UniProt Q8TD26), the log2 fold change was inactive: 0.001.

As for CFL1 (UniProt P23528), the log2 fold change was inactive: -0.013.

Turning to CDCA5 (UniProt Q96FF9), the log2 fold change is inactive: 0.05.

CHD5 (UniProt Q8TDI0): the log2 fold change is inactive: 0.079.

Regarding CEP250 (UniProt Q9BV73), the log2 fold change is inactive: 0.031.

On to CHMP2A (UniProt O43633), for which the log2 fold change was inactive: -0.015.

Consider CHAF1B (UniProt Q13112), for which the log2 fold change is inactive: -0.055.

With CHM (UniProt P24386), the log2 fold change is inactive: -0.052.

As to CENPH (UniProt Q9H3R5), the log2 fold change was inactive: -0.004.

Take CDKN2C (UniProt P42773): the log2 fold change is inactive: 0.083.

For CELF1 isoform 4 (UniProt Q92879), the log2 fold change is inactive: 0.035.

Regarding CDIPT (UniProt O14735), the log2 fold change is inactive: -0.044.

With CFAP20 (UniProt Q9Y6A4), the log2 fold change is inactive: 0.026.

Turning to CDC42EP4 (UniProt Q9H3Q1), the log2 fold change is inactive: -0.216.

As for CDK19 (UniProt Q9BWU1), the log2 fold change is inactive: 0.03.

As to CENPF (UniProt P49454), the log2 fold change was inactive: -0.004.

CERS6 isoform 2 (UniProt Q6ZMG9): the log2 fold change was inactive: -0.058.

In the case of CHEK2 isoform 9 (UniProt O96017), the log2 fold change was inactive: 0.008.

Take CDC42BPA isoform 6 (UniProt Q5VT25): the log2 fold change was inactive: -0.031.

As to CEP97 isoform 2 (UniProt Q8IW35), the log2 fold change was inactive: -0.11.

For the target CDK9 isoform 2 (UniProt P50750), the log2 fold change is inactive: 0.036.

For CENPO (UniProt Q9BU64), the log2 fold change is inactive: 0.107.

CDCA3 (UniProt Q99618): the log2 fold change is inactive: -0.019.

For CDS2 (UniProt O95674), the log2 fold change is inactive: -0.167.

Consider CEP192 (UniProt Q8TEP8), for which the log2 fold change is inactive: -0.034.

Consider CHMP1B (UniProt Q7LBR1), for which the log2 fold change was inactive: -0.059.

For CHCHD7 isoform 4 (UniProt Q9BUK0), the log2 fold change is inactive: -0.067.

Take CFL2 (UniProt Q9Y281): the log2 fold change is inactive: -0.041.

For CDKAL1 (UniProt Q5VV42), the log2 fold change is inactive: 0.054.

For the target CEP170 (UniProt Q5SW79), the log2 fold change is inactive: 0.144.

On to CHCHD3 (UniProt Q9NX63), for which the log2 fold change is inactive: -0.011.

Turning to CFAP298 (UniProt P57076), the log2 fold change was inactive: 0.11.

Regarding CHKB (UniProt Q9Y259), the log2 fold change is inactive: -0.032.

Consider CHMP1A (UniProt Q9HD42), for which the log2 fold change is inactive: -0.013.

On to CHML (UniProt P26374), for which the log2 fold change was inactive: -0.019.
